Measured values as given in PubChem BioAssay AID1347131 (National Center for Advancing Translational Sciences (NCATS), 2019).
In all, about 410,000 compounds went through this assay and about 2,000 (0.49%) were called active. This list was built around the results that the source calls inconclusive (neither active nor inactive); the mix of calls is not that of the screen. The call rests on the fitted dose curve; tested in HEK293 reporter line. A potency beside an inconclusive call is a rough fit, not a confirmed value.

Test: qHTS Assay for Foot and Mouth Disease Virus Antivirals: Primary Screen against the MLPCN compound library; further: nearly all actives have a fitted effect of over 55% in size
Conditions: FMDV antiviral cell-based qHTS; activity, negative = inhibition: at 57.9 µM (top of the series)
Potency means the concentration at half of the fitted maximal effect.

Row | Compound | Potency | activity, negative = inhibition
1 | NC1=NC[C@@H](Cc2ccc(O)cc2)N1CCc1cccc(F)c1 | inconclusive: 3.98 µM [inhibitor, full curve] | 
2 | CC(C)NC(=O)c1cc(C2CCCCN2C(=O)c2ccc(C#N)cc2)on1 (configuration not stated) | inconclusive: 8.91 µM [inhibitor, partial curve] | 
3 | COc1ccc(C(=O)c2no[n+]([O-])c2C(=O)c2ccc(OC)cc2)cc1 | inconclusive: 39.8 µM [inhibitor, partial curve, poor fit] | 
4 | CCOC(=O)c1ccc(NC(=O)c2cc3ccccc3o2)cc1 | inconclusive: 12.6 µM [inhibitor, single point] | 
5 | COCCn1c(=S)[nH]c2cc(C(=O)N3CCc4ccccc43)ccc2c1=O | inconclusive: 7.94 µM [inhibitor, partial curve, poor fit] | 
6 | CN1CCCC(CC2c3ccccc3Sc3ccccc32)C1 (configuration not stated) | inconclusive: 39.8 µM [inhibitor, partial curve, poor fit] | 
7 | O=C(c1ccc(Br)s1)N1CCN(Cc2ccc3c(c2)OCO3)CC1 | inconclusive: 22.4 µM [inhibitor, single point] | 
8 | O=C(c1cc(N2C(=O)C3C4CCC(C4)C3C2=O)ccc1Cl)N1CCN(c2ccc(F)cc2)CC1 (configuration not stated) | inconclusive: 31.6 µM [inhibitor, single point] | 
9 | O=C(COC(=O)c1ccco1)Nc1ccc2[nH]c(=O)[nH]c2c1 | inactive | 
10 | O=C(CSc1nc2ccccc2c(=O)n1-c1ccc(F)cc1F)c1c[nH]c2ccccc12 |  | inconclusive: -30.5% [inhibitor]
11 | O=C(Nc1cccc(-c2nc3ccccc3[nH]2)c1)c1cccc(NC(=O)c2ccco2)c1 | inconclusive: 31.6 µM [inhibitor, single point] | 
12 | CC1=CC(C)(C)N2C(=O)C3(SCC(=O)N3c3ccc(F)cc3)c3cc(C)cc1c32 (configuration not stated) | inconclusive: 17.8 µM [inhibitor, partial curve, poor fit] | 
13 | Cc1ccc(C(=O)NCC(=O)OCC(=O)Nc2ccccc2[N+](=O)[O-])cc1 | inconclusive: 3.16 µM [inhibitor, full curve] | 
14 | COc1ccccc1N(C)S(=O)(=O)c1ccc(C(=O)Nc2ccncc2)cc1 | inconclusive: 31.6 µM [inhibitor, partial curve, poor fit] | 
15 | CCCCc1ccc(NC(=O)N2CCN(c3cc(C)nc4ccccc34)CC2)c(C)c1 | inconclusive: 35.5 µM [inhibitor, partial curve, poor fit] | 
16 | CCOC(=O)/C(O)=C(\C#N)c1nc2ccccc2[nH]1 | inactive | 
17 | FC(F)(F)c1cccc(Cc2noc(CN3CCC(c4ccncc4)CC3)n2)c1 | inconclusive: 11.2 µM [inhibitor, partial curve] | 
18 | C=CCn1c(SCc2nc3c(c(=O)[nH]c(=O)n3CCCC)n2CCC)nnc1-c1ccccc1 | inactive | 
19 | CCn1cc(/C=C(\NC(=O)c2ccc(OC)cc2)C(=O)N2CCN(C)CC2)c2ccccc21 | inconclusive: 11.2 µM [inhibitor, partial curve, poor fit] | 

Among those listed so far, these contain an aryl thioether with sulfur outside any ring.
Row | Compound | Potency | activity, negative = inhibition
10 | O=C(CSc1nc2ccccc2c(=O)n1-c1ccc(F)cc1F)c1c[nH]c2ccccc12 |  | inconclusive: -30.5% [inhibitor]
18 | C=CCn1c(SCc2nc3c(c(=O)[nH]c(=O)n3CCCC)n2CCC)nnc1-c1ccccc1 | inactive | 

Remaining list, next part

Row | Compound | Potency | activity, negative = inhibition
20 | COc1ccc(NC(=O)C(=O)c2cc(C)n(-c3ccc(C)cc3)c2C)cc1Cl | inconclusive: 31.6 µM [inhibitor, partial curve, poor fit] | 
21 | O=C(C1CCC(CNS(=O)(=O)c2cccs2)CC1)N1CCN(c2ccc(Cl)cc2)CC1 (configuration not stated) | inconclusive: 31.6 µM [inhibitor, partial curve, poor fit] | 
22 | O=C(/C=C/Nc1ccccc1F)c1ccc(Br)cc1 | active: 12.6 µM | 
23 | Cc1sc2ncn(CC(=O)N3CCN(c4ccccc4F)CC3)c(=O)c2c1S(=O)(=O)N1CCOCC1 | inconclusive: 2.82 µM [inhibitor, full curve] | 
24 | CC1(C)Cc2c(C#N)c(N3CCN(C(=O)c4ccco4)CC3)nc(Cc3ccccc3)c2CO1 | inconclusive: 39.8 µM [inhibitor, partial curve, poor fit] | 
25 | CCCCc1c(-c2ccccc2OC)ncn1CCc1ccc(OC)cc1 | inconclusive: 22.4 µM [inhibitor, partial curve, poor fit] | 
26 | C=CCn1c(-c2ccc(OC)cc2)csc1=Nc1c(C)n(C)n(-c2ccccc2)c1=O | inconclusive: 22.4 µM [inhibitor, partial curve, poor fit] | 
27 | COc1cccc(OCCn2c(C)c(/C=N/n3cnnc3)c3ccccc32)c1 | inconclusive: 12.6 µM [inhibitor, partial curve] | 
28 | CC(=O)Nc1cccc(OCC(=O)/C=C2\N(C)c3ccccc3C2(C)C)c1 | inconclusive: 25.1 µM [inhibitor, partial curve, poor fit] | 
29 | O=C(c1nnsc1S(=O)(=O)c1ccc(Cl)cc1)N1CCOCC1 | inconclusive: 15.8 µM [inhibitor, partial curve, poor fit] | 
30 | CC1CCCN(S(=O)(=O)c2cc(C(=O)NCCc3ccc(S(N)(=O)=O)cc3)ccc2Cl)C1 (configuration not stated) | inconclusive: 17.8 µM [inhibitor, partial curve, poor fit] | 
31 | CS(=O)(=O)c1ccc(C(=O)Nc2cccc(-c3nc4ccccc4[nH]3)c2)cc1 | inactive | 
32 | Cc1ccc(NC(=O)N2CCC(C(=O)NCc3ccc(F)cc3)CC2)cc1 | inconclusive: 7.08 µM [inhibitor, partial curve, poor fit] | 
33 | CCCCc1c(-c2ccc(Br)cc2)ncn1CCc1ccccc1OC | inconclusive: 35.5 µM [inhibitor, single point] | 
34 | COc1ccc(S(=O)(=O)Cc2ccc(C(=O)N3CCN(c4ccccc4)CC3)o2)cc1 | inconclusive: 3.16 µM [inhibitor, full curve] | 
35 | S=C(NCCN1CCOCC1)N/N=C/c1c2ccccc2cc2ccccc12 | inconclusive: 14.1 µM [inhibitor, partial curve, poor fit] | 
36 | COc1ccc(-n2ncc3c(N(C)C4CCCCC4)ncnc32)cc1 | inconclusive: 10 µM [inhibitor, partial curve, poor fit] | 
37 | C=C(C(=O)c1ccccc1)C(CC(=O)c1ccccc1)c1ccccc1 (configuration not stated) | inconclusive: 17.8 µM [inhibitor, partial curve, poor fit] | 
